These are literature values, as cited in patent publication US20240317791A1 (priority 2021, published 2024).

Structures are written as SMILES. Where two headings read alike, the source gives them in different places.

For the data set the following is noted: cited from earlier work.

For `C[C@@H]1[C@H](O)[C@@H](C)/C=C/C=C/C=C/C=C/C=C/C=C/C=C/[C@H](O[C@@H]2O[C@H](C)[C@@H](O)[C@H](N)[C@@H]2O)C[C@@H]2O[C@](O)(C[C@@H](O)C[C@@H](O)[C@H](O)CC[C@@H](O)C[C@@H](O)CC(=O)O[C@H]1C)C[C@H](O)[C@H]2C(=O)O` [Amphotericin B], the “water solubility” value by setting is: (at physiological pH values) “substantially water insoluble”; (in distilled water) less than 1 µg/mL.
